From article PMC11693757
These are yes or no findings as the source states them, for the method shown. In cells and extracts the contact can be indirect. Some binding calls cover weakened binding; strength is not graded here.

Amino acid sequences for entries named in this document (tags omitted).
UniProt P42337: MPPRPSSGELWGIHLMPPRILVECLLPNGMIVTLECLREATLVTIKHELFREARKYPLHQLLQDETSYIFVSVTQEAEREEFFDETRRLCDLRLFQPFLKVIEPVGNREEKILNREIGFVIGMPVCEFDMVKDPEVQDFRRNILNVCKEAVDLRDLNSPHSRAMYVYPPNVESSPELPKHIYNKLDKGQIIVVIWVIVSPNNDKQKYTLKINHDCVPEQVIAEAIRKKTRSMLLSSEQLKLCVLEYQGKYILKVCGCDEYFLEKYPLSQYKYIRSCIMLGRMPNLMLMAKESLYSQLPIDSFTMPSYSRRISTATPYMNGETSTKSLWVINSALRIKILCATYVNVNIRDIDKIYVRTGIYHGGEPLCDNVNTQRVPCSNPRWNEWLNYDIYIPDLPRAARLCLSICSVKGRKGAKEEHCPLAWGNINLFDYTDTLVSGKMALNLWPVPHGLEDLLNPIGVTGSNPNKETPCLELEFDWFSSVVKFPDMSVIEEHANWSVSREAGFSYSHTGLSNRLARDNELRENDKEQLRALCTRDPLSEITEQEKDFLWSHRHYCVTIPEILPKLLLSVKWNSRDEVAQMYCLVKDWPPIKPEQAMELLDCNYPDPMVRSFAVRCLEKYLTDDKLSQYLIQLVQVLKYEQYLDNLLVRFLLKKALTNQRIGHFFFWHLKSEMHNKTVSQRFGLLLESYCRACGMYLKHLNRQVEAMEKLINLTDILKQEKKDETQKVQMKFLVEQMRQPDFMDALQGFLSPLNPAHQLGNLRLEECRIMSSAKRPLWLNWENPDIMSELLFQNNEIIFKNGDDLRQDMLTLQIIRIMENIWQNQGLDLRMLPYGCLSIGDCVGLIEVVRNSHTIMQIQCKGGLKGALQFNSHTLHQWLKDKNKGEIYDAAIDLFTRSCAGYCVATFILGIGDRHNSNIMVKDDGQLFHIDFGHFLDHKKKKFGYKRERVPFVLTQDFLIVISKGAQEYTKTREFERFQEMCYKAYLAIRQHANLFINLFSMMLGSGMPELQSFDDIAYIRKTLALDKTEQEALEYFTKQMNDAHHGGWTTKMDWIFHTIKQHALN

Target: T1, Asparagine endopeptidase (AEP), 4T1 cells (mouse (endogenous in 4T1)) (UniProt O89017)
T1 sequence: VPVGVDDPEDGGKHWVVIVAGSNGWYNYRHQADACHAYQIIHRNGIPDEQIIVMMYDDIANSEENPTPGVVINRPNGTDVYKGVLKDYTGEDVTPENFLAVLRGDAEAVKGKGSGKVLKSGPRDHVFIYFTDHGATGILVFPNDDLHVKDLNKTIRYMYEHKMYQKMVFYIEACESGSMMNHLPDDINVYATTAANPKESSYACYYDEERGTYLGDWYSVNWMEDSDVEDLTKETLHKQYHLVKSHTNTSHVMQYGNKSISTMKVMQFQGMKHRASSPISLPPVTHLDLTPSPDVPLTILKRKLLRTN
Experiment: co-IP; interaction of AEP and p110α in 4T1 cells (Fig. S5A); methods not shown

binding: binds
Substance: p110α, 4T1 cells (from UniProt P42337 1-1068) (enzyme)
